# Experimental data: PubChem BioAssay AID1508597 (Cure First, 2020)
# Aim: 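Knock-downs altering ovarian cancer cell survival with or without PARP inhibitor rucaparib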 (primary screen)
# System: human ovarian carcinoma lines grown from tumours: OCI-P5x (papillary serous) and OCI-C5x (clear cell)
# Reagents: siRNA pool against human genes, 1.25 pmol siRNA per well
# Time to read-out: 72 h or 96 h, depending on the cell culture
# Challenge: rucaparib 20 µM (about IC30) or vehicle, present until read-out
# Rucaparib or vehicle: Vehicle
# Cell line: OCI-P5x (serous)
# Measured: 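ATP luminescence measured at 72 or 96 h according to the culture, then normalised and expressed as percent viability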
# Reading the numbers: viability, normalised: higher = more viable cells remaining
# Active means: 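a well counts as a hit if its normalised viability is under 80 percent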
# Calls: active = viability under 80%; inactive = viability 80% or more
# This is a random part of the about 2,100 reagents, in one setting of the screen. 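Calls flag viability under 80% in either arm, not effects specific to rucaparib; the reference for percent is not stated.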 A number with no mark means an inactive call. Some reagents were tested in more than one well and are listed for each. Not given: the 100% reference.
gene knocked down,technical replicate,"viability, normalised (%)"
EVI5L,1,86.3
EVI5L,2,83.7
EVI5L,3,51.8 (active)
PWWP2B,1,62.7 (active)
PWWP2B,2,67.4 (active)
PWWP2B,3,76.7 (active)
EPHA2,1,64.5 (active)
EPHA2,2,49.8 (active)
EPHA2,3,65.3 (active)
RIOX2,1,60.7 (active)
RIOX2,2,77.5 (active)
RIOX2,3,68.8 (active)
ACVR1,1,104
ACVR1,2,88.2
ACVR1,3,99.7
PHKG2,1,56.5 (active)
PHKG2,2,69 (active)
PHKG2,3,51.5 (active)
VAX2,1,82.1
VAX2,2,101
VAX2,3,75.3 (active)
REV1,1,58.1 (active)
REV1,1,81.6
REV1,2,79.2 (active)
REV1,2,72.9 (active)
REV1,3,64.6 (active)
REV1,3,78.9 (active)
MNAT1,1,79.9 (active)
MNAT1,2,88.7
MNAT1,3,85.7
TRIB2,1,76.4 (active)
TRIB2,2,65.7 (active)
TRIB2,3,77.3 (active)
RFC4,1,79.5 (active)
RFC4,2,66.5 (active)
RFC4,3,57.5 (active)
ITK,1,103
ITK,2,87.8
ITK,3,66.6 (active)
DDX24,1,64.9 (active)
DDX24,2,82.3
DDX24,3,76.7 (active)
NUAK2,1,56.1 (active)
NUAK2,2,55.8 (active)
NUAK2,3,62.7 (active)
MAP4K5,1,91.5
MAP4K5,2,85
MAP4K5,3,86.8
LPP,1,92
LPP,2,85
LPP,3,83
SULF2,1,69.6 (active)
SULF2,2,68.3 (active)
SULF2,3,71.5 (active)
RASA3,1,85.1
RASA3,2,87.9
RASA3,3,108

Quoted from above, 4 entries:
gene knocked down,technical replicate,"viability, normalised (%)"
EPHA2,2,49.8 (active)
EPHA2,3,65.3 (active)
RIOX2,1,60.7 (active)
RIOX2,2,77.5 (active)
